Here are results for 1 molecule from article PMC7188950.

In this experiment the target is Signal transducer and activator of transcription 3 (mouse (endogenous in crude mitochondria)), P42227. Description: co-IP; crude mitochondria solubilized with 2% digitonin (detergent:protein = 4:1), diluted five times with MRB; Protein A/G beads coated with STAT3, NDUFA13 or GFP antibody; overnight at 4°C; four washes with MRB; Western blot. The conditions noted are these: remark: other sources report otherwise. On the technique in general: A western blot detects proteins with antibodies after separation by electrophoresis.

No constants are given. Whether binding was seen depends on the method and setting. In cells and extracts the contact can be indirect.

B1: NADH:ubiquinone oxidoreductase subunit A13, Q9ERS2 1-144 (protein)
chain: MAASKVKQDMPPPGGYGPIDYKRNLPRRGLSGYSMFAVGIGALIFGYWRMMRWNQERRRLLIEDLEARIALMPLFQAEKDRRTLQILRENLEEEAIIMKDVPNWKVGESVFHTTRWVPPLIGEMYGLRTKEEMSNANFGFTWYT
Consider B1, for which the binding entry is “no binding”.
